Laboratory results taken from the supplement of paper PMC4604168 (melanoma cell lines).
This is one part of the list. Single values are uncertain, as repeats are few or missing.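 Imaging used 1,536-well plates; nuclei positive for cleaved PARP by antibody were divided by total DNA-stained nuclei to yield the apoptosis fraction. Doses for screening kept most cells viable, and cell lines differ markedly in resting and induced cleaved-PARP levels.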

How the values were obtained:
Assay in all cases: cleaved PARP positive nuclei fraction relative to DMSO control; melanoma cells; higher = more apoptosis
Settings in all cases: library dose: low library concentration; 72 h
MZ2-MEL = system: MZ2-MEL
MeWo = system: MeWo
RPMI7951 = system: RPMI7951
RVH-421 = system: RVH-421
SkMel28 = system: SkMel28
SkMel2 = system: SkMel2
SkMel30 = system: SkMel30
SkMel5 = system: SkMel5
UACC257 = system: UACC257
UACC62 = system: UACC62
WM115 = system: WM115
WM1716 = system: WM1716
WM1745 = system: WM1745
WM3526 = system: WM3526
WM3619 = system: WM3619
WM451Lu = system: WM451Lu

SMILES	cleaved PARP positive nuclei fraction (MZ2-MEL)	cleaved PARP positive nuclei fraction (MeWo)	cleaved PARP positive nuclei fraction (RPMI7951)	cleaved PARP positive nuclei fraction (RVH-421)	cleaved PARP positive nuclei fraction (SkMel28)	cleaved PARP positive nuclei fraction (SkMel2)	cleaved PARP positive nuclei fraction (SkMel30)	cleaved PARP positive nuclei fraction (SkMel5)	cleaved PARP positive nuclei fraction (UACC257)	cleaved PARP positive nuclei fraction (UACC62)	cleaved PARP positive nuclei fraction (WM115)	cleaved PARP positive nuclei fraction (WM1716)	cleaved PARP positive nuclei fraction (WM1745)	cleaved PARP positive nuclei fraction (WM3526)	cleaved PARP positive nuclei fraction (WM3619)	cleaved PARP positive nuclei fraction (WM451Lu)
NC(=O)c1ccc(N(C(N)=O)c2c(F)cccc2F)nc1-c1ccc(F)cc1F + O=C(CCCCCCC(=O)Nc1ccccc1)NO [vorinostat] (first compound 0.4 µM, partner dose 0.08 µM)	115%	119%	220%	39.3%	434%	95.3%	73.4%	64.1%	46.6%	56.9%	247%	26.2%	81.6%	81%	83%	98.6%
CC(=O)O[C@@]12CO[C@@H]1C[C@H](O)[C@@]1(C)C(=O)[C@H](O)C3=C(C)[C@@H](OC(=O)[C@H](O)[C@@H](NC(=O)OC(C)(C)C)c4ccccc4)C[C@@](O)([C@@H](OC(=O)c4ccccc4)[C@H]21)C3(C)C [Docetaxel] + NCC(=O)Nc1ccc(-n2nc(C(F)(F)F)cc2-c2ccc3c(ccc4ccccc43)c2)cc1 [OSU03012] (first compound 0.0001 µM, partner dose 1 µM)	624%	657%	486%	139%	421%	817%	176%	572%	510%	186%	174%	210%	150%	122%	136%	270%
CCN(CC)CCNC(=O)c1c(C)[nH]c(/C=C2\C(=O)Nc3ccc(F)cc32)c1C [sunitinib] + Cn1cncc1[C@@](N)(c1ccc(Cl)cc1)c1ccc2c(c1)c(-c1cccc(Cl)c1)cc(=O)n2C [tipifarnib] (first compound 0.4 µM, partner dose 0.01 µM)	50.8%	105%	102%	105%	65.5%	145%	70.6%	31.2%	124%	158%	143%	47.2%	109%	197%	104%	50.1%
Cn1cnc2c(F)c(Nc3ccc(Br)cc3Cl)c(C(=O)NOCCO)cc21 [selumetinib] + CO[C@@H]1[C@H](N(C)C(=O)c2ccccc2)C[C@H]2O[C@]1(C)n1c3ccccc3c3c4c(c5c6ccccc6n2c5c31)C(=O)NC4 [Midostaurin] (first compound 0.015 µM, partner dose 0.08 µM)	319%	268%	184%	170%	20.8%	120%	41.5%	37.7%	110%	184%	213%	103%	135%	122%	96.7%	426%
Cn1sc(=O)n(Cc2ccccc2)c1=O + COC(=O)c1sccc1S(=O)(=O)Nc1ccc(Nc2ccccc2)cc1OC [GSK0660] (first compound 0.4 µM, partner dose 1 µM)	122%	66.1%	161%	175%	183%	64.4%	79.9%	74%	373%	50.3%	54.6%	49.5%	89.5%	72.3%	146%	97.9%
Cn1cnc2c(F)c(Nc3ccc(Br)cc3Cl)c(C(=O)NOCCO)cc21 [selumetinib] + COc1ccc(COc2ccc(Cc3cnc(N)nc3N)cc2OC)cc1 [GW2580] (first compound 0.015 µM, partner dose 1 µM)	228%	122%	53.8%	101%	124%	171%	95.1%	58.9%	102%	150%	119%	55.9%	85.9%	81.9%	104%	41.4%
CN(c1ncccc1CNc1nc(Nc2ccc3c(c2)CC(=O)N3)ncc1C(F)(F)F)S(C)(=O)=O + O=C(CCCCCCC(=O)Nc1ccccc1)NO [vorinostat] (first compound 0.08 µM, partner dose 0.08 µM)	126%	112%	85%	134%	49.7%	134%	167%	46.9%	253%	45%	146%	71.7%	83.6%	53.6%	95.8%	169%
CC(=O)O[C@@]12CO[C@@H]1C[C@H](O)[C@@]1(C)C(=O)[C@H](O)C3=C(C)[C@@H](OC(=O)[C@H](O)[C@@H](NC(=O)OC(C)(C)C)c4ccccc4)C[C@@](O)([C@@H](OC(=O)c4ccccc4)[C@H]21)C3(C)C [Docetaxel] + C[C@@H]1CCN(C(=O)CC#N)C[C@@H]1N(C)c1ncnc2[nH]ccc12 [CP690550] (first compound 0.0001 µM, partner dose 1 µM)	1040%	248%	82.8%	333%	282%	711%	717%	255%	1440%	488%	404%	992%	181%	632%	139%	109%
CS(=O)(=O)c1ccc(C(=O)Nc2ccc(Cl)c(-c3ccccn3)c2)c(Cl)c1 [vismodegib] + CC(C)CCN1c2nc(Nc3cc(F)c(O)c(F)c3)ncc2N(C)C(=O)C1C [BID1870] (first compound 1 µM, partner dose 0.2 µM)	160%	86.4%	92.9%	96.5%	77.8%	71.7%	175%	71.5%	105%	92.5%	60.2%	197%	81.6%	69.5%	100%	47.5%
NC1(c2ccc(-c3nc4ccn5c(=O)[nH]nc5c4cc3-c3ccccc3)cc2)CCC1 + C[C@@H]1CCN(C(=O)CC#N)C[C@@H]1N(C)c1ncnc2[nH]ccc12 [CP690550] (first compound 0.4 µM, partner dose 1 µM)	91.6%	122%	76.2%	52.5%	93.5%	157%	178%	77.5%	40.1%	374%	388%	125%	112%	201%	125%	108%
C[C@@H](N)c1ccc(C(=O)Nc2ccnc3[nH]ccc23)cc1 + Oc1cc(-c2nc(-c3ccccc3)[nH]c2-c2ccncc2)ccc1Cl [L779450] (first compound 0.4 µM, partner dose 0.2 µM)	191%	21.1%	100%	223%	451%	61.4%	59.9%	167%	200%	301%	145%	153%	147%	42.8%	90.5%	49%
CN(c1ncccc1CNc1nc(Nc2ccc3c(c2)CC(=O)N3)ncc1C(F)(F)F)S(C)(=O)=O + c1cc(-c2cnn3cc(-c4ccc(OCCN5CCCCC5)cc4)cnc23)ccn1 [Dorsomorphin] (first compound 0.08 µM, partner dose 0.4 µM)	113%	78.1%	41.6%	133%	140%	47.8%	114%	55.4%	208%	209%	661%	271%	109%	87.6%	118%	99.6%
Cn1sc(=O)n(Cc2ccccc2)c1=O + CC1(C)NC(=O)N(c2ccc([N+](=O)[O-])c(C(F)(F)F)c2)C1=O [nilutamide] (first compound 0.4 µM, partner dose 1 µM)	41.4%	102%	53.5%	58.1%	93.9%	127%	64%	125%	40.8%	50.5%	53.5%	102%	84.7%	56.9%	103%	311%
CCN(CC)CCNC(=O)c1c(C)[nH]c(/C=C2\C(=O)Nc3ccc(F)cc32)c1C [sunitinib] + NCC(=O)Nc1ccc(-n2nc(C(F)(F)F)cc2-c2ccc3c(ccc4ccccc43)c2)cc1 [OSU03012] (first compound 0.4 µM, partner dose 1 µM)	110%	93.7%	134%	21.4%	46.9%	209%	305%	112%	178%	81.7%	58.9%	53.2%	123%	132%	101%	161%
CS(=O)(=O)c1ccc(C(=O)Nc2ccc(Cl)c(-c3ccccn3)c2)c(Cl)c1 [vismodegib] + O=C(Nc1cccc(Cl)c1)Nc1ncc(CCNc2ncnc3ccsc23)s1 [SNS314] (first compound 1 µM, partner dose 0.0008 µM)	107%	106%	79.3%	885%	214%	68.4%	71.2%	66.5%	62.3%	88.7%	32.8%	10.8%	83.8%	81.3%	72.7%	80.8%
NC1(c2ccc(-c3nc4ccn5c(=O)[nH]nc5c4cc3-c3ccccc3)cc2)CCC1 + N#Cc1c(O)c2c(-c3ccc(-c4ccccc4O)cc3)csc2[nH]c1=O [A769662] (first compound 0.4 µM, partner dose 2 µM)	141%	72.5%	118%	116%	253%	56.5%	114%	79%	103%	155%	250%	66.5%	84.6%	185%	74.2%	70.2%
NC(=O)c1ccc(N(C(N)=O)c2c(F)cccc2F)nc1-c1ccc(F)cc1F + COc1cc2ncnc(Nc3ccc(Oc4ccccc4)cc3)c2cc1OC [SrcI1] (first compound 0.4 µM, partner dose 2 µM)	212%	122%	46.7%	69%	393%	53.9%	91.2%	75.2%	127%	187%	173%	164%	91.7%	67.1%	78.4%	96.3%

Complete entries from above. Order of values: cleaved PARP positive nuclei fraction (MZ2-MEL)	cleaved PARP positive nuclei fraction (MeWo)	cleaved PARP positive nuclei fraction (RPMI7951)	cleaved PARP positive nuclei fraction (RVH-421)	cleaved PARP positive nuclei fraction (SkMel28)	cleaved PARP positive nuclei fraction (SkMel2)	cleaved PARP positive nuclei fraction (SkMel30)	cleaved PARP positive nuclei fraction (SkMel5)	cleaved PARP positive nuclei fraction (UACC257)	cleaved PARP positive nuclei fraction (UACC62)	cleaved PARP positive nuclei fraction (WM115)	cleaved PARP positive nuclei fraction (WM1716)	cleaved PARP positive nuclei fraction (WM1745)	cleaved PARP positive nuclei fraction (WM3526)	cleaved PARP positive nuclei fraction (WM3619)	cleaved PARP positive nuclei fraction (WM451Lu)
CCN(CC)CCNC(=O)c1c(C)[nH]c(/C=C2\C(=O)Nc3ccc(F)cc32)c1C [sunitinib] + NCC(=O)Nc1ccc(-n2nc(C(F)(F)F)cc2-c2ccc3c(ccc4ccccc43)c2)cc1 [OSU03012] (first compound 0.4 µM, partner dose 1 µM) in the list: 110%	93.7%	134%	21.4%	46.9%	209%	305%	112%	178%	81.7%	58.9%	53.2%	123%	132%	101%	161%
CS(=O)(=O)c1ccc(C(=O)Nc2ccc(Cl)c(-c3ccccn3)c2)c(Cl)c1 [vismodegib] + O=C(Nc1cccc(Cl)c1)Nc1ncc(CCNc2ncnc3ccsc23)s1 [SNS314] (first compound 1 µM, partner dose 0.0008 µM) in the list: 107%	106%	79.3%	885%	214%	68.4%	71.2%	66.5%	62.3%	88.7%	32.8%	10.8%	83.8%	81.3%	72.7%	80.8%
